Measured values published in publication doi:10.1101/2025.01.15.633117.

The chains behind the UniProt entries cited, without tags or fusion partners. Residues count along the entry.
UniProt P29317, residues 24-976: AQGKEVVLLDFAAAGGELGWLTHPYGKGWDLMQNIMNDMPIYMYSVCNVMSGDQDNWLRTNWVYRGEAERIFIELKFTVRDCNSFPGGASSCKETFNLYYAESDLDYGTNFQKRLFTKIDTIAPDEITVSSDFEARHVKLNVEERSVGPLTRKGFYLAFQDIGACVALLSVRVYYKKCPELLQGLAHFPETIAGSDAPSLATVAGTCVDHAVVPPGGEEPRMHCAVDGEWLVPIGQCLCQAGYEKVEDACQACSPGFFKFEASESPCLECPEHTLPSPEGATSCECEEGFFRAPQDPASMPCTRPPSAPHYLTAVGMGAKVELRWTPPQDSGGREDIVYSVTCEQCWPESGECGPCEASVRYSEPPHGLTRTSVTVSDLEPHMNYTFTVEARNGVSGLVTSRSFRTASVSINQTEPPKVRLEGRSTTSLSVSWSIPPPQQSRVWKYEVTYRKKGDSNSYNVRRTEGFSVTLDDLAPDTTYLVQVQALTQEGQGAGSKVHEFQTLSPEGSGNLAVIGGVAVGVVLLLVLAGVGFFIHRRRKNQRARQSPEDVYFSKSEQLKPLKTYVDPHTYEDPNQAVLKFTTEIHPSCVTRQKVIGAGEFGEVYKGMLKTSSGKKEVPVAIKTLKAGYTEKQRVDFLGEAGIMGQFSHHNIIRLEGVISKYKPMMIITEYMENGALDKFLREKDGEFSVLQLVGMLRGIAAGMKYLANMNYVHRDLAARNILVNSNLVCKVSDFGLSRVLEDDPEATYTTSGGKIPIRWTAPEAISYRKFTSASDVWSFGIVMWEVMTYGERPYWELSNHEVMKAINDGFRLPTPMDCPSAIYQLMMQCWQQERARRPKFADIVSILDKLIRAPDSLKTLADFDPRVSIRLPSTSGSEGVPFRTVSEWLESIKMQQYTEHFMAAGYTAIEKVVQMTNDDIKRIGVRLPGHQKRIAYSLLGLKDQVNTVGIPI
UniProt Q01974, residues 34-943: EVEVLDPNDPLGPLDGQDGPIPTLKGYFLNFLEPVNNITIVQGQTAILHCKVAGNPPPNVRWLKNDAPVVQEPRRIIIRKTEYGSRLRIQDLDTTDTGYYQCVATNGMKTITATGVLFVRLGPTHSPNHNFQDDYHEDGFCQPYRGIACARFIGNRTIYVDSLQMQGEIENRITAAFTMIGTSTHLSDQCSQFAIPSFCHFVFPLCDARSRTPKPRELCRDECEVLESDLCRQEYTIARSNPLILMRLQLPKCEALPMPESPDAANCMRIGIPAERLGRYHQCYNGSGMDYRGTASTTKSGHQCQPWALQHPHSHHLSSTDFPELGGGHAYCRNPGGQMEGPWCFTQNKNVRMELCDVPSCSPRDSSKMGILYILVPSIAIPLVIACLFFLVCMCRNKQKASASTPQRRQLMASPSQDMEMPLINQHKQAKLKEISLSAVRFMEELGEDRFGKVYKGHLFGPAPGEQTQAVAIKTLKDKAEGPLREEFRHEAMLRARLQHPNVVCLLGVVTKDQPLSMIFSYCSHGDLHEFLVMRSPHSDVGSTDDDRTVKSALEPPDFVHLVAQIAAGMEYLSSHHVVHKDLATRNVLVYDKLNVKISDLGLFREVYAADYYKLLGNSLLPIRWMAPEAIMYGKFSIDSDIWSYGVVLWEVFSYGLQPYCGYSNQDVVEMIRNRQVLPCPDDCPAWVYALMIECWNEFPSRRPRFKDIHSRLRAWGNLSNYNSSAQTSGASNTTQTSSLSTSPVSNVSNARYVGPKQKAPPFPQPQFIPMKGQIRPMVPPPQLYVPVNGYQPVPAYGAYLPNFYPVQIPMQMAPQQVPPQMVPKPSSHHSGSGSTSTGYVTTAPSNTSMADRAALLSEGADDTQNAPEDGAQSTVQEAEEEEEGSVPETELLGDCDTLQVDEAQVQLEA

T1: PHACTR4-V5-miniTurboID (human) (UniProt Q8IZ21)
T1 sequence: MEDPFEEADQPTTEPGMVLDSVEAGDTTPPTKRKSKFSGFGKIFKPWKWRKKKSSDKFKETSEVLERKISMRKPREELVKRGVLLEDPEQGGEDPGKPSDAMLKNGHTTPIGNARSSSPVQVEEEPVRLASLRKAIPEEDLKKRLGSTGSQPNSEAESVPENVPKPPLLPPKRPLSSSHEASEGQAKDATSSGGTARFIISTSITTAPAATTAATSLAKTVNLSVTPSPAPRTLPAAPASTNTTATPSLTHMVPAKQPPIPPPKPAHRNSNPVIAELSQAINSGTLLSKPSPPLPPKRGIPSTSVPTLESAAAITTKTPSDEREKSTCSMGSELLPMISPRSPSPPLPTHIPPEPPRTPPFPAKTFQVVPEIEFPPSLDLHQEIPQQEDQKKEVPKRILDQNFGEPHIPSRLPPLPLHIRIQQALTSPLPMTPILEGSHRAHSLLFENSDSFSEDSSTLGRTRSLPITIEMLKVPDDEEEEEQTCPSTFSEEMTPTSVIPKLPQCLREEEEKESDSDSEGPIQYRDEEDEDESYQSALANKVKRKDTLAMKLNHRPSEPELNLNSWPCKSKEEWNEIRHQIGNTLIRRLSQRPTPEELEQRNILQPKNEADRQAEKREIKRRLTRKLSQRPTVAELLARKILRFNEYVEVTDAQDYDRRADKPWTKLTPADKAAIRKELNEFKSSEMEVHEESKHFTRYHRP

T2: RAI14-V5-miniTurboID (human) (UniProt Q9P0K7)
T2 sequence: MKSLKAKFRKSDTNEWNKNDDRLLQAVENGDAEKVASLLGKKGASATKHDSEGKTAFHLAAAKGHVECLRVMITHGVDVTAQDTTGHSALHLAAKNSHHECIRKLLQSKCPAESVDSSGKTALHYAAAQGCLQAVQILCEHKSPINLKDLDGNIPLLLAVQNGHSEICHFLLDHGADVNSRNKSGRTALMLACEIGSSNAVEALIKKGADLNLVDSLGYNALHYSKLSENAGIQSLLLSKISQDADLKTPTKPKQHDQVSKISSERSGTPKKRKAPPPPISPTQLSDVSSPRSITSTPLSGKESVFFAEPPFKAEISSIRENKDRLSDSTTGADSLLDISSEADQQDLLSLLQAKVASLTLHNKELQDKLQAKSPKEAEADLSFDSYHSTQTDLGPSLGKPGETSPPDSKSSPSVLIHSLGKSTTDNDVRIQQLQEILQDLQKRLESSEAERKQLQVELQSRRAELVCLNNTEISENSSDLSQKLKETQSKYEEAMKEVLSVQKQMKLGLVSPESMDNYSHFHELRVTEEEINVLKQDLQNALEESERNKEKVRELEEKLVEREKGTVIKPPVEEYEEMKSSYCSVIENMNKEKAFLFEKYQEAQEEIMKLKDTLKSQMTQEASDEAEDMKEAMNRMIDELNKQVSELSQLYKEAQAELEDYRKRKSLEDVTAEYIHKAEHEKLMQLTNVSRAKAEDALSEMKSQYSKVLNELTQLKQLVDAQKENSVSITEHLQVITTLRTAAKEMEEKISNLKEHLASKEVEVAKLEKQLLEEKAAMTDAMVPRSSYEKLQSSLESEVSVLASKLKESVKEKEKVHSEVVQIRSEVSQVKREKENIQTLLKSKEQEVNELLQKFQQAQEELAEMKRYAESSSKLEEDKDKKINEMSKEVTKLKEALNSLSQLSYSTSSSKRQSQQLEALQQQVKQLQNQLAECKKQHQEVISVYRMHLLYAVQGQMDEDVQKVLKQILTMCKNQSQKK

T3: VANGL2-BirA*-HA (human) (UniProt Q9ULK5)
T3 sequence: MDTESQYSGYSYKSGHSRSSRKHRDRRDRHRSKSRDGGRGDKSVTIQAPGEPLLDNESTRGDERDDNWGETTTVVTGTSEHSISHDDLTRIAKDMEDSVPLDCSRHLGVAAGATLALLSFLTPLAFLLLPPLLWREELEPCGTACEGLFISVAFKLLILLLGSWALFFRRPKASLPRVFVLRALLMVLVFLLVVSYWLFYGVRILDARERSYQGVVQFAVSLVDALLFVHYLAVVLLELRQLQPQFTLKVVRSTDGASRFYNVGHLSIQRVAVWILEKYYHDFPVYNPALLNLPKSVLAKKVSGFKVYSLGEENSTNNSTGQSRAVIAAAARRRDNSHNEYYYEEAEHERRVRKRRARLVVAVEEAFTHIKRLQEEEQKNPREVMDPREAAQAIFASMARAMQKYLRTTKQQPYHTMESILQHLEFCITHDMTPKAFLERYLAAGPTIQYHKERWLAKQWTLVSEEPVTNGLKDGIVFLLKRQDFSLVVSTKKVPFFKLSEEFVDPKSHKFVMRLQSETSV

B1: SEC24B (protein, UniProt O95487 1-1268)
chain: MSAPAGSSHPAASARIPPKFGGAAVSGAAAPAGPGAGPAPHQQNGPAQNQMQVPSGYGLHHQNYIAPSGHYSQGPGKMTSLPLDTQCGDYYSALYTVPTQNVTPNTVNQQPGAQQLYSRGPPAPHIVGSTLGSFQGAASSASHLHTSASQPYSSFVNHYNSPAMYSASSSVASQGFPSTCGHYAMSTVSNAAYPSVSYPSLPAGDTYGQMFTSQNAPTVRPVKDNSFSGQNTAISHPSPLPPLPSQQHHQQQSLSGYSTLTWSSPGLPSTQDNLIRNHTGSLAVANNNPTITVADSLSCPVMQNVQPPKSSPVVSTVLSGSSGSSSTRTPPTANHPVEPVTSVTQPSELLQQKGVQYGEYVNNQASSAPTPLSSTSDDEEEEEEDEEAGVDSSSTTSSASPMPNSYDALEGGSYPDMLSSSASSPAPDPAPEPDPASAPAPASAPAPVVPQPSKMAKPFGYGYPTLQPGYQNATAPLISGVQPSNPVYSGFQQYPQQYPGVNQLSSSIGGLSLQSSPQPESLRPVNLTQERNILPMTPVWAPVPNLNADLKKLNCSPDSFRCTLTNIPQTQALLNKAKLPLGLLLHPFRDLTQLPVITSNTIVRCRSCRTYINPFVSFIDQRRWKCNLCYRVNDVPEEFMYNPLTRSYGEPHKRPEVQNSTVEFIASSDYMLRPPQPAVYLFVLDVSHNAVEAGYLTILCQSLLENLDKLPGDSRTRIGFMTFDSTIHFYNLQEGLSQPQMLIVSDIDDVFLPTPDSLLVNLYESKELIKDLLNALPNMFTNTRETHSALGPALQAAFKLMSPTGGRVSVFQTQLPSLGAGLLQSREDPNQRSSTKVVQHLGPATDFYKKLALDCSGQQTAVDLFLLSSQYSDLASLACMSKYSAGCIYYYPSFHYTHNPSQAEKLQKDLKRYLTRKIGFEAVMRIRCTKGLSMHTFHGNFFVRSTDLLSLANINPDAGFAVQLSIEESLTDTSLVCFQTALLYTSSKGERRIRVHTLCLPVVSSLADVYAGVDVQAAICLLANMAVDRSVSSSLSDARDALVNAVVDSLSAYGSTVSNLQHSALMAPSSLKLFPLYVLALLKQKAFRTGTSTRLDDRVYAMCQIKSQPLVHLMKMIHPNLYRIDRLTDEGAVHVNDRIVPQPPLQKLSAEKLTREGAFLMDCGSVFYIWVGKGCDNNFIEDVLGYTNFASIPQKMTHLPELDTLSSERARSFITWLRDSRPLSPILHIVKDESPAKAEFFQHLIEDRTEAAFSYYEFLLHVQQQICK

Columns and labels:
Assay in all cases: proximity labelling
[1] = molecular target: EPHA2-V5-miniTurboID (human) (UniProt P29317)
[2] = molecular target: T1, PHACTR4-V5-miniTurboID (human)
[3] = molecular target: T2, RAI14-V5-miniTurboID (human)
[4] = molecular target: T3, VANGL2-BirA*-HA (human)

| Molecule | binding [1] | binding [2] | binding [3] | binding [4] |
| --- | --- | --- | --- | --- |
| ROR2 (endogenous) (from UniProt Q01974 34-943) (receptor) | binds | binds | binds | – |
| B1 | – | – | – | binds |

No constants are given. Whether binding was seen depends on the method and setting. Binding seen in cells or lysates may run through a third protein. Here binding means that the protein was enriched with, or labelled near, the bait; the list need not be complete. For some of these results: Tags and fused reporters may be left off the sequences shown.
